# Results published in PubChem BioAssay.
# This list was built around the results that the source calls inconclusive (neither active nor inactive); the mix of calls is not that of the screen. For some of these results: A potency beside an inconclusive call is a rough fit, not a confirmed value. Activity calls are given as the source filed them. Unless noted, no cut-off is given here; in the data, nearly all actives have AC50 up to about 23 µM.
# What was measured:
# [1] = growth inhibition of DIPG glioma cells, dose response, cell-based, SU-DIPG-XIII, MIPE5.0, CellTiter-Glo, qHTS (AID 1347064); details: SU-DIPG-XIII viability, CellTiter-Glo ATP luminescence;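 for AC50: cells exposed to compound for 48 hours before the viability read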
# [2] = JHH-DIPG-1 glioma cell viability, MIPE5.0 library, CellTiter-Glo luminescence, qHTS (AID 1347067; cut-off not given, nearly all actives have AC50 up to about 26 µM;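 note: cells exposed to compound for 48 hours before readout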); details: JHH-DIPG-1 glioma viability, CellTiter-Glo ATP luminescence
# [3] = SU-DIPG-XXV glioma cell viability, MIPE5.0 library, qHTS (AID 1347068; cut-off not given, nearly all actives have IC50 up to about 30 µM;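 note: cells exposed to compound for 48 hours before viability readout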)
# [4] = inhibitors of polyQ aggregate elongation, biochemical, solid-phase synthetic aggregates, QA3 (AID 1585; call rule not given here); details: biotin-polyQ incorporation, at 100 µM, hits give high values
# [5] = polyglutamine aggregation reduction, turbidity readout, qthio, single concentration 25 µM screen (AID 1588; call rule not given here); details: at 25 µM, hits give low values
# [6] = protection of motor neurons from glutamate death, cell-based, TUNEL DNA degradation staining, MNGlu (AID 1594; call rule not given here); details: glutamate-induced death, at 1 µM, hits give high values
# [7] = enhancers of SMN2 over SMN1 splicing, cell-based, SMN2/SMN1 luciferase reporters (AID 1598; call rule not given here); details: SMN2 vs SMN1 luciferase splicing reporter cells; at 10 µM; hits give high values
# [8] = viability loss in pontine glioma line – cell-based, SU-DIPG-XXV, MIPE5.0, CellTiter-Glo, qHTS, dose response (AID 1347065; cut-off not given, nearly all actives have AC50 up to about 26 µM;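 note: cells exposed to compound for 48 hours before ATP readout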); details: CellTiter-Glo ATP luminescence
# [9] = SU-DIPG-VI glioma cell viability, MIPE4.0 library, CellTiter-Glo luminescence, qHTS (AID 1347066; cut-off not given, nearly all actives have AC50 up to about 30 µM;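 note: cells exposed to compound for 48 hours before readout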); details: CellTiter-Glo ATP luminescence
structure (smiles),measurement,setting,value
CCC(CC)CC1(C(=O)Nc2ccccc2SC(=O)C(C)C)CCCCC1,AC50,[1],inconclusive: 11.8 µM
same,outcome,[2],inactive
N#CCC1(n2cc(-c3ncnc4[nH]ccc34)cn2)CN(C2CCN(C(=O)c3ccnc(C(F)(F)F)c3F)CC2)C1,outcome,[1],inactive
same,AC50,[2],inconclusive: 20.9 µM [cytotoxic]
CCOc1cc(C(=O)N2CCC(N3CCN(C)CC3)CC2)ccc1Nc1ncc2c(n1)N(C1CCCC1)c1ccccc1C(=O)N2C,AC50,[1],inconclusive: 18.6 µM [cytotoxic]
same,AC50,[2],active: 26.3 µM
same,IC50,[3],active: 20.9 µM
CC[C@H](NC(=O)[C@H](CS(=O)(=O)CC1CC1)N[C@@H](c1ccc(F)cc1)C(F)(F)F)C(=O)C(=O)NC1CC1,AC50,[1],inconclusive: 6.61 µM [cytotoxic]
same,outcome,[2],inactive
same,IC50,[3],inconclusive: 4.68 µM [cytotoxic]
Nc1ncnc2c1ncn2[C@@H]1O[C@H](CO)[C@@H](O)[C@@H]1O,inhibition,[4],inconclusive: 14.1%
same,aggregation (% of control),[5],inconclusive: 102%
same,protection,[6],inconclusive: 3%
same,SMN2/SMN1 luciferase ratio,[7],inconclusive: 0.97
same,outcome,[1],inactive
same,outcome,[8],inactive
CN1CCN(C2CCN(C(=O)Nc3cc(Oc4ccc(NC(=O)C5(C(=O)Nc6ccc(F)cc6)CC5)c(F)c4)ccn3)CC2)CC1,AC50,[1],active: 20.9 µM
same,AC50,[2],inconclusive: 37.2 µM [cytotoxic]
same,IC50,[3],active: 23.5 µM
COC1CCC(N2C(=O)CNc3ncc(-c4ccc(C(C)(C)O)nc4)nc32)CC1 (centres undefined),AC50,[1],inconclusive: 16.6 µM [cytotoxic]
same,AC50,[8],active: 11.8 µM
same,IC50,[3],active: 14.8 µM
COc1ccc2c(c1)[C@]1(C[C@H]1c1ccc3c(/C=C/c4ccc(CN5C[C@@H](C)O[C@@H](C)C5)cc4)n[nH]c3c1)C(=O)N2,AC50,[1],inconclusive: 1.05 µM [cytotoxic]
same,AC50,[2],inconclusive: 2.09 µM [cytotoxic]
same,IC50,[3],inconclusive: 0.0235 µM [cytotoxic]
Cc1nc2ccc(-n3ncc(C(=O)c4cc5ccccc5[nH]4)c3N)cc2[nH]1,AC50,[1],inconclusive: 0.332 µM [cytotoxic]
same,AC50,[2],inconclusive: 0.417 µM [cytotoxic]
same,IC50,[3],inconclusive: 0.934 µM [cytotoxic]
CC(C)(C)NC(=O)c1cncn1C1CCN(c2ccc(-c3nnc(C(F)(F)F)o3)cn2)CC1,AC50,[1],active: 5.9 µM
same,AC50,[2],inconclusive: 5.25 µM [cytotoxic]
same,IC50,[3],inconclusive: 3.32 µM [cytotoxic]
COc1ncc(-c2ccc3c(Nc4cc(Oc5cc(F)cc(F)c5)cc(C(=O)O)c4)c(S(=O)(=O)NC4CC4)cnc3c2)c(OC)n1,outcome,[1],inactive
same,AC50,[2],inconclusive: 37.2 µM [cytotoxic]
O=C1NC(=O)C(c2c[nH]c3ccccc23)=C1c1c[nH]c2ccccc12,AC50,[1],inconclusive: 16.6 µM [cytotoxic]
same,AC50,[2],inconclusive: 11.8 µM [cytotoxic]
same,IC50,[3],active: 18.6 µM
CC(C)(O)c1coc(S(=O)(=O)NC(=O)Nc2c3c(cc4c2CCC4)CCC3)c1,outcome,[1],inactive
same,AC50,[2],inconclusive: 0.59 µM [cytotoxic]
Cc1ncc(Cl)cc1NCc1ccc(C(=O)NC(CC2CCCC2)C(=O)NC2CC2)s1 (centres undefined),outcome,[1],inactive
same,AC50,[2],inconclusive: 20.9 µM [cytotoxic]
COC(=O)c1ccc([C@H]2c3[nH]c4ccccc4c3C[C@H](C(=O)OC)N2C(=O)CCl)cc1,AC50,[1],inconclusive: 8.33 µM [cytotoxic]
same,AC50,[2],active: 2.35 µM
same,IC50,[3],active: 14.8 µM
CCn1c(=O)c(-c2ccn[nH]2)cc2c(C)nc(N)nc21,AC50,[1],active: 5.9 µM
same,AC50,[2],inconclusive: 10.5 µM [cytotoxic]
same,IC50,[3],inconclusive: 2.09 µM [cytotoxic]
COc1ccc(-n2nc(C(N)=O)c3c2C(=O)N(c2ccc(N4CCCCC4=O)cc2)CC3)cc1,outcome,[1],inactive
same,outcome,[9],inactive
same,IC50,[3],inconclusive: 11.8 µM

# Quoted from the listing for reference:
structure (smiles),measurement,setting,value
COC1CCC(N2C(=O)CNc3ncc(-c4ccc(C(C)(C)O)nc4)nc32)CC1 (centres undefined),IC50,[3],active: 14.8 µM
COc1ccc2c(c1)[C@]1(C[C@H]1c1ccc3c(/C=C/c4ccc(CN5C[C@@H](C)O[C@@H](C)C5)cc4)n[nH]c3c1)C(=O)N2,AC50,[1],inconclusive: 1.05 µM [cytotoxic]
same,AC50,[2],inconclusive: 2.09 µM [cytotoxic]
